Assay results published in PubChem BioAssay AID298 (DTP/NCI, 2004).
The list shows only some results of the screen, not a fair sample: it gathers tests that were run many times, whatever their T/C, doses with no T/C, and many T/C values between a quarter and a half above the control. Further doses and runs are listed elsewhere. T/C gives the treated animals as a percentage of the vehicle group. Schedules are NCI's codes, read here as Q, the interval in days (D) or hours (H), X, the number of doses. Some doses have a count of surviving animals in place of a T/C: the source holds a T/C of zero for them, seemingly a mark for toxic or unscored doses. Counts of survivors are from the toxicity check (mostly the fifth day) where no day follows; animals may have died later. Some entries were tested several times; the results are listed from low to high.

Tested on: MX-1 breast xenograft, intrarenal, nude mice, tumor weight
Experiment: NCI In Vivo Anticancer Drug Screen. Data for tumor model Human Mammary Carcinoma MX-1 Xenograft (intrarenal inoculation) in NU/NU BALB/C (nude) mice
Conditions: T/C endpoint: mean tumor weight change, higher T/C = larger tumour; for T/C: evaluated on day 11
Method in brief: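 Compounds were given to mice carrying transplanted tumors, and tumor size or survival was measured. Each value is the treated-group measurement (T) divided by the vehicle-treated control-group measurement (C).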

[1] = dose: 75.0 mg/kg/injection, schedule: Q04DX003 (sc), vehicle: Klucel (hydroxypropylcellulose) (HPC)
[2] = dose: 200.0 mg/kg/injection, schedule: Q04DX003 (ip), vehicle: saline
[3] = dose: 1200.0 mg/kg/injection, schedule: Q04DX003 (ip), vehicle: saline with Tween-80
[4] = dose: 600.0 mg/kg/injection, schedule: Q04DX003 (ip), vehicle: Klucel (hydroxypropylcellulose) (HPC)

With C/C=C(\C)c1cc(=O)c2c(C)cc3c(c2o1)C(=O)c1c(O)c(C2CC(C)(N(C)C)C(OC(C)=O)C(C)O2)cc(C2CC(N(C)C)C(O)C(C)O2)c1C3=O (configuration not stated) the survivor count (dose: 40.0 mg/kg/injection, schedule: Q04DX003 (sc), vehicle: saline) was 0 of 6 on day 11.

In the case of COC1C(OC(=O)/C=C/C=C/C=C/C=C/C(=O)O)CCC2(CO2)C1C1(C)OC1CC=C(C)C (configuration not stated), the survivor count (dose: 1200.0 mg/kg/injection, schedule: Q04DX003 (sc), vehicle: saline) is reported as 0 of 6 on day 11.

COc1cc(C2=NCCc3cc4c(cc32)OCO4)cc(OC)c1OC was tested, and the survivor count (dose: 300.0 mg/kg/injection, schedule: Q04DX003 (ip), vehicle: saline + alcohol) was 1 of 6 on day 11 and the survivor count (dose: 600.0 mg/kg/injection, schedule: Q04DX003 (ip), vehicle: saline + alcohol) was 0 of 6 on day 11.

With Nc1nc2ncn(O)c2c(=O)[nH]1 the survivor count (dose: 50.0 mg/kg/injection, schedule: Q04DX003 (ip), vehicle: water) was 2 of 6 on day 11 and the survivor count (dose: 100.0 mg/kg/injection, schedule: Q04DX003 (ip), vehicle: water) was 0 of 6 on day 11.

For Nc1nc(=S)c2[nH]cnc2[nH]1, the T/C (dose: 0.4 mg/kg/injection, schedule: Q01DX010 (sc), vehicle: Klucel (hydroxypropylcellulose) (HPC)) was 131 % of control, the T/C (dose: 0.8 mg/kg/injection, schedule: Q01DX010 (sc), vehicle: Klucel (hydroxypropylcellulose) (HPC)) was 125 % of control and the survivor count (dose: 3.2 mg/kg/injection, schedule: Q01DX010 (sc), vehicle: Klucel (hydroxypropylcellulose) (HPC)) was 1 of 3 on day 11.

In the case of COc1c(C=O)c2c(c(OC)c1OC)-c1ccc(OC)c(=O)cc1[C@@H](NC(C)=O)CC2, the survivor count [1] is reported as 1 of 6 on day 11.

For COc1cc([C@@H]2c3cc4c(cc3[C@@H](OC3OC5COC(C)OC5C(O)C3O)[C@H]3COC(=O)[C@H]23)OCO4)cc(OC)c1O (some centres not stated), the survivor count (dose: 32.0 mg/kg/injection, schedule: Q01DX010 (ip), vehicle: saline) was 0 of 6 on day 11 and the survivor count (dose: 64.0 mg/kg/injection, schedule: Q04DX003 (ip), vehicle: saline) was 0 of 6 on day 11 and 2 of 5 on day 11.

With Cn1c(-c2ccc(/C=N\N3CCN(/N=C/c4ccc(-c5c[n+]6ccsc6n5C)cc4)CC3)cc2)c[n+]2ccsc12 the survivor count (dose: 6.0 mg/kg/injection, schedule: Q04DX003 (ip), vehicle: saline with Tween-80) was 1 of 6 on day 11, the survivor count (dose: 12.0 mg/kg/injection, schedule: Q04DX003 (ip), vehicle: saline with Tween-80) was 0 of 6 on day 11 and the survivor count (dose: 24.0 mg/kg/injection, schedule: Q04DX003 (ip), vehicle: saline with Tween-80) was 0 of 6 on day 11.

For c1ccc2c(c1)[As]=c1ccccc1=[As]2 (configuration not stated), the T/C (dose: 37.5 mg/kg/injection, schedule: Q04DX003 (sc), vehicle: saline) was 136 % of control.

In the case of Cc1ccoc1, the survivor count (dose: 400.0 mg/kg/injection, schedule: Q01DX010 (ip), vehicle: saline with Tween-80) is reported as 0 of 6 on day 11.

O=P1(N(CCCl)CCCl)NCCCO1 (configuration not stated) was tested, and the survivor count (dose: 100.0 mg/kg/injection, schedule: Q01DX010 (sc), vehicle: saline) was 0 of 3 on day 11, the survivor count (dose: 200.0 mg/kg/injection, schedule: Q01DX010 (sc), vehicle: saline) was 0 of 4 on day 11 and the survivor count [2] was 0 of 6 on day 11. The survivor count (dose: 200.0 mg/kg/injection, schedule: Q04DX003 (sc), vehicle: saline) was 1 of 3 on day 11.

With NCCCNCCCCNC(=O)C(O)NC(=O)CC(O)CCCCN=C(N)N (configuration not stated) the survivor count (dose: 100.0 mg/kg/injection, schedule: Q04DX003 (ip), vehicle: saline) was 3 of 6 on day 11, the survivor count [2] was 0 of 6 on day 11 and the survivor count (dose: 400.0 mg/kg/injection, schedule: Q04DX003 (ip), vehicle: saline) was 0 of 6 on day 11. The survivor count (dose: 800.0 mg/kg/injection, schedule: Q04DX003 (ip), vehicle: saline) was 0 of 6 on day 11.

For CCOC(=O)C1=C(C)O/C(=C/c2cccc(Cl)c2)C1=O, the survivor count (dose: 300.0 mg/kg/injection, schedule: Q04DX003 (ip), vehicle: saline with Tween-80) was 3 of 5 on day 11, the survivor count (dose: 600.0 mg/kg/injection, schedule: Q04DX003 (ip), vehicle: saline with Tween-80) was 0 of 6 on day 11 and the survivor count [3] was 0 of 6 on day 11.

For O=C(NNC(=O)c1cccc(C(=O)NNC(=O)c2ccc(Cl)c(Cl)c2)n1)c1ccc(Cl)c(Cl)c1, the survivor count [3] was 0 of 6 on day 11.

With CCS/C(SC)=C(/c1ccccc1)[P+](c1ccccc1)(c1ccccc1)c1ccccc1 the survivor count [1] was 0 of 6 on day 11.

In the case of C=CCCC(=O)CCCC(=O)O[C@@H]1[C@@H]2[C@H](CC1(C)C)[C@H](O)[C@@]13O[C@@H]1[C@H](O)[C@@]1(CO1)[C@@]23C, the T/C (dose: 50.0 micrograms/kg/injection, schedule: Q04DX003 (ip), vehicle: Klucel (hydroxypropylcellulose) (HPC)) is reported as 126 % of control.

In the case of C=C(C)C1C2CC3(C)C4(CO4)C4OC4C3(O)C1C(=O)O2 (configuration not stated), the survivor count (dose: 1.25 mg/kg/injection, schedule: Q04DX003 (ip), vehicle: Klucel (hydroxypropylcellulose) (HPC)) is reported as 0 of 5 on day 11, the survivor count (dose: 2.5 mg/kg/injection, schedule: Q04DX003 (ip), vehicle: Klucel (hydroxypropylcellulose) (HPC)) is reported as 2 of 6 on day 11 and the survivor count (dose: 5.0 mg/kg/injection, schedule: Q04DX003 (ip), vehicle: Klucel (hydroxypropylcellulose) (HPC)) is reported as 0 of 6 on day 11. For the same compound, the survivor count (dose: 10.0 mg/kg/injection, schedule: Q04DX003 (ip), vehicle: Klucel (hydroxypropylcellulose) (HPC)) was 0 of 6 on day 11 and the survivor count (dose: 20.0 mg/kg/injection, schedule: Q04DX003 (ip), vehicle: Klucel (hydroxypropylcellulose) (HPC)) was 0 of 6 on day 11.

With C1CCC2C[N-]CCC2C1.C1CCC2C[N-]CCC2C1.C1CCC2C[N-]CCC2C1.C1CCC2C[N-]CCC2C1.[Cl][Rh][Cl] (configuration not stated) the T/C (dose: 288.0 mg/kg/injection, schedule: Q04DX003 (sc), vehicle: saline with Tween-80) was 125 % of control.

With COc1cccc2c1C(=N)c1c(O)c3c(c(O)c1C2=O)C[C@@](O)(C(C)=O)C[C@@H]3OC1CC(N)C(O)C(C)O1 (some centres not stated) the survivor count (dose: 32.0 mg/kg/injection, schedule: Q01DX010 (sc), vehicle: water) was 3 of 6 on day 11.

Cc1ccc2c(c1)C1(C)OC(C=CC1=O)O2 (configuration not stated) was tested, and the T/C (dose: 75.0 mg/kg/injection, schedule: Q04DX003 (ip), vehicle: Klucel (hydroxypropylcellulose) (HPC)) was 136 % of control, the survivor count (dose: 300.0 mg/kg/injection, schedule: Q04DX003 (ip), vehicle: Klucel (hydroxypropylcellulose) (HPC)) was 0 of 6 on day 11 and the survivor count [4] was 0 of 6 on day 11.

C=CCOc1cc2c(cc1C(C)c1ccc(OC)cc1)OCO2 (configuration not stated) was tested, and the survivor count [4] was 3 of 6 on day 11.

For O=C/C(Cl)=C(/Cl)C(=O)O, the survivor count (dose: 80.0 mg/kg/injection, schedule: Q01DX010 (sc), vehicle: saline with Tween-80) was 0 of 3 on day 11.

c1ccc2[nH]c(CN(CCN(Cc3nc4ccccc4[nH]3)Cc3nc4ccccc4[nH]3)Cc3nc4ccccc4[nH]3)nc2c1 was tested, and the survivor count (dose: 50.0 mg/kg/injection, schedule: Q04DX003 (ip), vehicle: DMSO) was 0 of 6 on day 11 and 2 of 6 on day 11, the survivor count (dose: 100.0 mg/kg/injection, schedule: Q04DX003 (ip), vehicle: DMSO) was 0 of 6 on day 11 and the survivor count (dose: 200.0 mg/kg/injection, schedule: Q04DX003 (ip), vehicle: DMSO) was 0 of 6 on day 11. The survivor count (dose: 400.0 mg/kg/injection, schedule: Q04DX003 (ip), vehicle: DMSO) was 0 of 6 on day 11.

COc1ccc2c(c1)n([O-])c1ccccc1[n+]2=O was tested, and the survivor count (dose: 400.0 mg/kg/injection, schedule: Q04DX003 (ip), vehicle: saline with Tween-80) was 0 of 6 on day 11.

In the case of CCN(CC)CCC(=O)OC(C(=O)O[C@H]1C[C@@]2(O)C(OC(=O)c3ccccc3)C3C4(OC(C)=O)COC4C[C@H](O)[C@@]3(C)C(=O)[C@H](OC(C)=O)C(=C1C)C2(C)C)C(NC(=O)c1ccccc1)c1ccccc1 (some centres not stated), the survivor count (dose: 36.0 mg/kg/injection, schedule: Q01DX009 (ip), vehicle: water) is reported as 0 of 5 on day 11.

For CN(C)/N=N/c1nc[nH]c1C(N)=O, the T/C (dose: 100.0 mg/kg/injection, schedule: Q01DX010 (sc), vehicle: Klucel (hydroxypropylcellulose) (HPC)) was 127 % of control and the survivor count (dose: 800.0 mg/kg/injection, schedule: Q01DX010 (sc), vehicle: Klucel (hydroxypropylcellulose) (HPC)) was 0 of 3 on day 11.

In the case of CC1OC(O[C@H]2/C=C/C=C/C=C/C=C/C=C/C=C/C=C/[C@H](C)[C@@H](O)[C@@H](C)[C@H](C)OC(=O)C[C@H](O)C[C@H](O)CC[C@@H](O)[C@H](O)C[C@H](O)C[C@]3(O)C[C@H](O)[C@@H](C(=O)O)[C@H](C2)O3)C(O)C(N)C1O (some centres not stated), the T/C (dose: 50.0 mg/kg/injection, schedule: Q04DX003 (ip), vehicle: suspension in saline) is reported as 131 % of control.
